# PubChem BioAssay AID1159596, NIAID, 2016
# Screen: 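Genes whose silencing alters the TNF reporter response of macrophage-like cells to peptidoglycan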 (primary screen)
# Cells: human THP1 B5 monocytic reporter cells made macrophage-like with PMA
# Reagent: single siRNA against human genes
# Timing: assayed 48 to 72 hours after siRNA transfection; peptidoglycan stimulation lasted 4 hours
# Challenge: Staphylococcus aureus peptidoglycan for 4 hours; dose not given
# Detection: 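Mean over replicate screens of a robust z per siRNA from the dual luciferase TNF promoter reporter after 4 h peptidoglycan, median/MAD normalised, relative to negative controls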
# Reading the numbers: TNF reporter z-score: higher = stronger TNF promoter reporter response to peptidoglycan
# Active means: In these data the active calls have TNF reporter z-score, replicate mean at about -1.5 or lower, or at about 1.5 or higher
# Calls: active = reporter shifted beyond cut (either direction); inactive = reporter near control level
# Shown is a random part of 756 reagents. Over the whole deposit, 143 (19%) are marked active. 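Active means the reporter moved past about ±1.5 in either direction; scores are per single siRNA, not per gene; peptidoglycan dose not given.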 Reagents against one gene are numbered here. Not stated in the record: the amount of reagent.
target,reagent,"TNF reporter z-score, replicate mean",outcome
TRADD (TNFRSF1A associated via death domain),1,-0.146,inactive
TRADD (TNFRSF1A associated via death domain),2,-0.259,inactive
TRADD (TNFRSF1A associated via death domain),3,-0.443,inactive
TRADD (TNFRSF1A associated via death domain),4,-1.59,active
TRADD (TNFRSF1A associated via death domain),5,1.19,inactive
TRADD (TNFRSF1A associated via death domain),6,-3.35,active
ELK1 (ETS transcription factor ELK1),1,-2.4,active
ELK1 (ETS transcription factor ELK1),2,-2.18,active
ELK1 (ETS transcription factor ELK1),3,-1.71,active
ELK1 (ETS transcription factor ELK1),4,-0.531,inactive
ELK1 (ETS transcription factor ELK1),5,-0.555,inactive
ELK1 (ETS transcription factor ELK1),6,0.441,inactive
TLR2 (toll like receptor 2),1,-3.95,active
TLR2 (toll like receptor 2),2,-2.68,active
TLR2 (toll like receptor 2),3,-3.19,active
TLR2 (toll like receptor 2),4,-2.21,active
TLR2 (toll like receptor 2),5,-0.845,inactive
TLR2 (toll like receptor 2),6,-2.61,active
RIPK1 (receptor interacting serine/threonine kinase 1),1,-0.559,inactive
RIPK1 (receptor interacting serine/threonine kinase 1),2,0.00909,inactive
RIPK1 (receptor interacting serine/threonine kinase 1),3,0.446,inactive
RIPK1 (receptor interacting serine/threonine kinase 1),4,-1.09,inactive
RIPK1 (receptor interacting serine/threonine kinase 1),5,-0.287,inactive
RIPK1 (receptor interacting serine/threonine kinase 1),6,-0.389,inactive
EGR2 (early growth response 2),1,-0.953,inactive
EGR2 (early growth response 2),2,0.218,inactive
EGR2 (early growth response 2),3,-0.783,inactive
EGR2 (early growth response 2),4,-0.763,inactive
EGR2 (early growth response 2),5,-0.264,inactive
EGR2 (early growth response 2),6,-1.61,active
MAP2K1 (mitogen-activated protein kinase kinase 1),1,-0.494,inactive
MAP2K1 (mitogen-activated protein kinase kinase 1),2,0.0262,inactive
MAP2K1 (mitogen-activated protein kinase kinase 1),3,-1.86,active
MAP2K1 (mitogen-activated protein kinase kinase 1),4,-0.113,inactive
MAP2K1 (mitogen-activated protein kinase kinase 1),5,-0.384,inactive
MAP2K1 (mitogen-activated protein kinase kinase 1),6,-0.351,inactive
IRAK4 (interleukin 1 receptor associated kinase 4),1,-0.599,inactive
IRAK4 (interleukin 1 receptor associated kinase 4),2,-0.424,inactive
IRAK4 (interleukin 1 receptor associated kinase 4),3,0.0348,inactive
IRAK4 (interleukin 1 receptor associated kinase 4),4,-1.56,active
IRAK4 (interleukin 1 receptor associated kinase 4),5,-0.266,inactive
IRAK4 (interleukin 1 receptor associated kinase 4),6,0.0611,inactive
CHUK,1,-1.1,inactive
CHUK,2,-0.201,inactive
CHUK,3,-0.825,inactive
CHUK,4,-0.37,inactive
CHUK,5,-0.71,inactive
CHUK,6,0.589,inactive
ARF6 (ARF GTPase 6),1,0.211,inactive
ARF6 (ARF GTPase 6),2,-0.942,inactive
ARF6 (ARF GTPase 6),3,0.503,inactive
ARF6 (ARF GTPase 6),4,-0.811,inactive
ARF6 (ARF GTPase 6),5,-0.229,inactive
ARF6 (ARF GTPase 6),6,0.281,inactive
IKBKG,1,-1.98,active
IKBKG,2,-0.401,inactive
IKBKG,3,-0.32,inactive
IKBKG,4,-1.09,inactive
IKBKG,5,0.694,inactive
IKBKG,6,-2.13,active
ELK4 (ETS transcription factor ELK4),1,-1.08,inactive
ELK4 (ETS transcription factor ELK4),2,-0.583,inactive
ELK4 (ETS transcription factor ELK4),3,-0.18,inactive
ELK4 (ETS transcription factor ELK4),4,0.554,inactive
ELK4 (ETS transcription factor ELK4),5,-0.676,inactive
ELK4 (ETS transcription factor ELK4),6,-0.42,inactive
ATF7 (activating transcription factor 7),1,-2.01,active
ATF7 (activating transcription factor 7),2,-0.429,inactive
ATF7 (activating transcription factor 7),3,-0.78,inactive
ATF7 (activating transcription factor 7),4,-0.33,inactive
ATF7 (activating transcription factor 7),5,-2.06,active
ATF7 (activating transcription factor 7),6,-0.469,inactive
TNFAIP3 (TNF alpha induced protein 3),1,-1.94,active
TNFAIP3 (TNF alpha induced protein 3),2,-0.36,inactive
TNFAIP3 (TNF alpha induced protein 3),3,-3.26,active
TNFAIP3 (TNF alpha induced protein 3),4,-0.767,inactive
TNFAIP3 (TNF alpha induced protein 3),5,0.27,inactive
TNFAIP3 (TNF alpha induced protein 3),6,-1.59,active
EP300 (EP300 lysine acetyltransferase),1,0.349,inactive
EP300 (EP300 lysine acetyltransferase),2,0.508,inactive
EP300 (EP300 lysine acetyltransferase),3,0.572,inactive
EP300 (EP300 lysine acetyltransferase),4,1.12,inactive
EP300 (EP300 lysine acetyltransferase),5,0.115,inactive
EP300 (EP300 lysine acetyltransferase),6,0.814,inactive
NFKBIB (NFKB inhibitor beta),1,-1.29,inactive
NFKBIB (NFKB inhibitor beta),2,-0.399,inactive
NFKBIB (NFKB inhibitor beta),3,-0.334,inactive
NFKBIB (NFKB inhibitor beta),4,-0.861,inactive
NFKBIB (NFKB inhibitor beta),5,0.104,inactive
NFKBIB (NFKB inhibitor beta),6,-0.187,inactive
IFNAR1 (interferon alpha and beta receptor subunit 1),1,-0.0613,inactive
IFNAR1 (interferon alpha and beta receptor subunit 1),2,-1.2,inactive
IFNAR1 (interferon alpha and beta receptor subunit 1),3,-0.315,inactive
IFNAR1 (interferon alpha and beta receptor subunit 1),4,-0.632,inactive
IFNAR1 (interferon alpha and beta receptor subunit 1),5,-0.292,inactive
IFNAR1 (interferon alpha and beta receptor subunit 1),6,-0.0907,inactive
MAP2K3 (mitogen-activated protein kinase kinase 3),1,-0.697,inactive
MAP2K3 (mitogen-activated protein kinase kinase 3),2,-1.19,inactive
MAP2K3 (mitogen-activated protein kinase kinase 3),3,-1.46,inactive
MAP2K3 (mitogen-activated protein kinase kinase 3),4,-2.72,active
MAP2K3 (mitogen-activated protein kinase kinase 3),5,-0.158,inactive
MAP2K3 (mitogen-activated protein kinase kinase 3),6,-3.59,active
UBE2N (ubiquitin conjugating enzyme E2 N),1,0.267,inactive
UBE2N (ubiquitin conjugating enzyme E2 N),2,-0.599,inactive
UBE2N (ubiquitin conjugating enzyme E2 N),3,0.677,inactive
UBE2N (ubiquitin conjugating enzyme E2 N),4,-1.21,inactive
UBE2N (ubiquitin conjugating enzyme E2 N),5,-0.0783,inactive
UBE2N (ubiquitin conjugating enzyme E2 N),6,0.789,inactive
NFKB1 (nuclear factor kappa B subunit 1),1,-0.943,inactive
NFKB1 (nuclear factor kappa B subunit 1),2,-0.155,inactive
NFKB1 (nuclear factor kappa B subunit 1),3,-0.574,inactive
NFKB1 (nuclear factor kappa B subunit 1),4,-1.02,inactive
NFKB1 (nuclear factor kappa B subunit 1),5,0.763,inactive
NFKB1 (nuclear factor kappa B subunit 1),6,0.043,inactive
IL6 (interleukin 6),1,0.186,inactive
IL6 (interleukin 6),2,-0.954,inactive
IL6 (interleukin 6),3,-1.84,active
IL6 (interleukin 6),4,-0.517,inactive
IL6 (interleukin 6),5,-0.525,inactive
IL6 (interleukin 6),6,0.4,inactive
MAPK9 (mitogen-activated protein kinase 9),1,-0.733,inactive
MAPK9 (mitogen-activated protein kinase 9),2,-0.204,inactive
MAPK9 (mitogen-activated protein kinase 9),3,-0.315,inactive
MAPK9 (mitogen-activated protein kinase 9),4,0.311,inactive
MAPK9 (mitogen-activated protein kinase 9),5,-0.176,inactive
MAPK9 (mitogen-activated protein kinase 9),6,0.0673,inactive
MAP2K4 (mitogen-activated protein kinase kinase 4),1,-1.03,inactive
MAP2K4 (mitogen-activated protein kinase kinase 4),2,-1.39,inactive
MAP2K4 (mitogen-activated protein kinase kinase 4),3,0.28,inactive
MAP2K4 (mitogen-activated protein kinase kinase 4),4,0.211,inactive
MAP2K4 (mitogen-activated protein kinase kinase 4),5,0.0574,inactive
MAP2K4 (mitogen-activated protein kinase kinase 4),6,-0.12,inactive
FADD (Fas associated via death domain),1,0.645,inactive
FADD (Fas associated via death domain),2,0.201,inactive
FADD (Fas associated via death domain),3,1.11,inactive
FADD (Fas associated via death domain),4,-1.19,inactive
FADD (Fas associated via death domain),5,-0.0629,inactive
FADD (Fas associated via death domain),6,-0.726,inactive
IKBKE (inhibitor of nuclear factor kappa B kinase subunit epsilon),1,1.51,active
IKBKE (inhibitor of nuclear factor kappa B kinase subunit epsilon),2,-1.43,inactive
IKBKE (inhibitor of nuclear factor kappa B kinase subunit epsilon),3,0.199,inactive
IKBKE (inhibitor of nuclear factor kappa B kinase subunit epsilon),4,2.53,active
IKBKE (inhibitor of nuclear factor kappa B kinase subunit epsilon),5,-0.855,inactive
IKBKE (inhibitor of nuclear factor kappa B kinase subunit epsilon),6,-0.804,inactive

Ordered by “TNF reporter z-score, replicate mean” (low to high): 10 of the entries above.
target,reagent,"TNF reporter z-score, replicate mean",outcome
TLR2 (toll like receptor 2),6,-2.61,active
RIPK1 (receptor interacting serine/threonine kinase 1),4,-1.09,inactive
EGR2 (early growth response 2),1,-0.953,inactive
TLR2 (toll like receptor 2),5,-0.845,inactive
RIPK1 (receptor interacting serine/threonine kinase 1),1,-0.559,inactive
RIPK1 (receptor interacting serine/threonine kinase 1),6,-0.389,inactive
RIPK1 (receptor interacting serine/threonine kinase 1),5,-0.287,inactive
RIPK1 (receptor interacting serine/threonine kinase 1),2,0.00909,inactive
EGR2 (early growth response 2),2,0.218,inactive
RIPK1 (receptor interacting serine/threonine kinase 1),3,0.446,inactive
